Reference: PubChem BioAssay AID1347076 (National Center for Advancing Translational Sciences (NCATS), 2019)
Among all 400,000 compounds or so, about 13,000 (3.2%) were called active. Inconclusive means that the source gave no clear call. Such entries were picked first, then a sample of the others. Calls come from the whole dose curve; as a rule, active = well fitted cell-killing curve with a large enough effect; inconclusive = small, poorly fitted or top-dose-only effect, or effect the other way; inactive = flat fitted curve, though single readings scatter. Potencies of inconclusive entries are doubtful fits and often do not repeat.

Experiment: qHTS assay for MDR1-selective chemotherapeutics: Primary screen using the drug-selected MDR subline cells KB-V1; note: nearly all actives have a fitted effect of over 60% in size
Details: KB-V1 MDR cells viability, CellTiter-Glo, 72 h; activity change, negative = cytotoxicity: at 46.1 µM (top of the series)
In short: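 Luminescent ATP read-out (CellTiter-Glo, 10 min) measures survival of drug-selected KB-V1 MDR cells after 72 h, 37 degrees C compound exposure. Medium: phenol-red-free DMEM, 10% FBS. Values from fitted concentration-response curves.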
% is set by controls: 0 for no effect and ±100 for the full control effect; potency is the fitted concentration of half-maximal effect.

SMILES	Potency	activity change, negative = cytotoxicity
Cc1c(/C=N/NC(=O)c2ccc(O)cc2)c2ccccn2c1C(=O)c1ccc(F)cc1	active: 18.4 µM	–
Cc1ccccc1S(=O)(=O)NC(=O)C1(C)CCN1C(=O)Cc1ccccc1Cl (stereo not drawn)	–	inactive: 11.7%
CC1=NN(C(=O)Cc2ccc(C)cc2)C(O)(c2cccnc2)C1 (stereo not drawn)	–	inactive: 0.391%
CCCCC1CCC(c2ccc(C(N)=O)cc2)CC1 (stereo not drawn)	inconclusive: 29.1 µM [rising, single point]	–
COc1cccc(C(=O)N2CCN(C(=O)c3ccc(-c4ccccc4)cc3)CC2)c1OC	inconclusive: 18.4 µM [cytotoxic, single point]	–
CC(=O)c1c(C)[nH]c(C(=O)N2CCN(S(=O)(=O)c3ccc(C)cc3C)CC2)c1C	–	inactive: -3.41%
CCN1C=C(Cc2ccc(F)cc2)C2=C(C1)C(c1ccc(F)cc1)C(C#N)=C(N)O2 (stereo not drawn)	active: 16.4 µM	–
O=C(c1ccc([N+](=O)[O-])o1)N1CCN(c2nc3ccc(F)cc3s2)CC1	–	inactive: -22.4%
COCCN(CCOC)Cc1c(O)ccc2c1O/C(=C\c1ccco1)C2=O	inconclusive: 23.1 µM [cytotoxic, partial curve, poor fit]	–
CCc1ccccc1NC(=O)C(C)n1nc(-c2ccc(C)c(C)c2)ccc1=O (stereo not drawn)	–	inactive: 0.541%
CCCCNC(=O)C1C(c2ccc(C(F)(F)F)cc2)=Nc2ccccc2N1C(C)=O (stereo not drawn)	inconclusive: 13 µM [cytotoxic, partial curve, poor fit]	–
COc1ccc(NC(=O)Cc2ccsc2)cc1S(=O)(=O)N1CCCCC1	active: 20.6 µM	–
CS(=O)(=O)N1CCC(C(=O)Nc2ccc(Cl)c(C(F)(F)F)c2)CC1	inconclusive: 29.1 µM [cytotoxic, single point]	–
COc1cccc(N2CCN(c3c4c(nc5ncnn35)CCC4)CC2)c1	inconclusive: 2.91 µM [cytotoxic, full curve]	–
C=CCCC(=O)N1C[C@H]2CON(C)[C@H]2C[C@H]1c1cccc(Br)c1	inconclusive: 14.6 µM [rising, single point]	–
COC(=O)c1c(NC(=O)CN2CCC3(O)CCCCC3C2c2cc(OC)ccc2OC)sc(C)c1C (stereo not drawn)	inconclusive: 23.1 µM [cytotoxic, single point]	–
CC(C)(C)c1ccccc1OCCCCCNCCO	inconclusive: 9.2 µM [cytotoxic, partial curve]	–
Cc1ccc(C)c(Nc2nc3nonc3nc2Nc2cccc(C)c2C)c1	inconclusive: 23.1 µM [cytotoxic, single point]	–
CCN(CC)c1cc(C)c2cc(NC(=O)c3ccc(Br)o3)ccc2n1	inconclusive: 25.9 µM [cytotoxic, partial curve, poor fit]	–
CCCn1c2ccccc2c2cnn(CC(=O)NCc3cc(OC)ccc3OC)c(=O)c21	–	inactive: -8.12%
O=C(CSc1nc2ccccc2s1)Nc1ccc2c(c1)oc1ccccc12	inconclusive: 8.2 µM [cytotoxic, partial curve, poor fit]	–
CC(C)(C)OC(=O)N1CCC(NC(=O)c2nc[nH]c2C(=O)NCC(=O)OCc2ccccc2)CC1	–	inactive: 15.4%

Looked up above.
activity change, negative = cytotoxicity, O=C(c1ccc([N+](=O)[O-])o1)N1CCN(c2nc3ccc(F)cc3s2)CC1 is entered as inactive: -22.4%
Potency, COC(=O)c1c(NC(=O)CN2CCC3(O)CCCCC3C2c2cc(OC)ccc2OC)sc(C)c1C (stereo not drawn) is entered as inconclusive: 23.1 µM [cytotoxic, single point]

(next part)

SMILES	Potency	activity change, negative = cytotoxicity
Cc1ccccc1CN1CCNC(=O)C1CC(=O)O (stereo not drawn)	inconclusive: 29.1 µM [rising, single point]	–
c1ccc(Nc2nc(Nc3ccccc3)nc(N3CCNCC3)n2)cc1	inconclusive: 29.1 µM [cytotoxic, single point]	–
CCC(C)c1ccc(C(C)NC(=S)NCc2ccc(F)cc2)cc1 (stereo not drawn)	inconclusive: 29.1 µM [cytotoxic, partial curve, poor fit]	–
C=CCC[C@@H](Cc1ccc(F)cc1)C(=O)O[C@H](CNC(=O)[C@H](CC=C)CC(=O)N(CCO)Cc1ccccc1)c1ccccc1	inconclusive: 32.6 µM [cytotoxic, single point]	–
COc1cc(CNCCc2ccc(F)cc2)ccc1OCc1ccc(Cl)nc1	inconclusive: 25.9 µM [cytotoxic, partial curve, poor fit]	–
COc1cc2c(cc1OC)CN(C(=O)c1cccc([N+](=O)[O-])c1)CC2	inconclusive: 10.3 µM [cytotoxic, partial curve, poor fit]	–
O=C(C[n+]1ccccc1)N/N=C/c1cc(Br)ccc1F	–	inactive: -0.191%
COc1ccc(-c2noc(CN3CCCCC3c3nccn3C)n2)cc1 (stereo not drawn)	inconclusive: 6.51 µM [cytotoxic, partial curve]	–
CCOC(=O)c1[nH]c(C)c(C(=O)Nc2ccc(Cl)cc2)c1C	–	inactive: -6.23%
CC(=O)N1c2ccc(Cl)cc2C2C=CCC2C1c1cccc2ccccc12 (stereo not drawn)	inconclusive: 29.1 µM [cytotoxic, single point]	–
CC(C(=O)NCc1ccccc1)n1c(CSCCOc2ccccc2)nc2ccccc21 (stereo not drawn)	inconclusive: 3.66 µM [cytotoxic, full curve]	–
Cc1cc(-c2nnc(SCC(=O)Nc3c(C)cccc3C)n2N)n[nH]1	inconclusive: 2.91 µM [rising, partial curve, poor fit]	–
COc1nc(NC(=O)c2ccc(F)cc2)nc(OC)c1-c1ccccc1	inconclusive: 20.6 µM [cytotoxic, single point]	–
CCN1C(=O)[C@H]2[C@@H](c3ccc(OC)cc3)N[C@]3(CCCN(Cc4ccc(C)cc4)C3=O)[C@H]2C1=O	–	inactive: -4.57%
CC(C#N)(Cc1ccccc1)Nc1ccccc1 (stereo not drawn)	inconclusive: 29.1 µM [rising, single point]	–
CC1(C)Cc2cccc(OCC(=O)OCC(=O)Nc3ccc(S(N)(=O)=O)cc3)c2O1	–	inactive: 14.4%
CCOC(=O)c1c(C)nc(-c2ccccc2)nc1NC(C)=O	inconclusive: 16.4 µM [cytotoxic, partial curve]	–
CCOC(=O)N1CCN(Cc2nc3c(c(=O)n(C)c(=O)n3C)n2Cc2ccccc2C)CC1	inconclusive: 1.03 µM [cytotoxic, full curve]	–
CCN=c1scc(-c2ccccc2)n1/N=C/c1ccccn1	inconclusive: 18.4 µM [cytotoxic, single point]	–
CC12CCC(C(=O)Nc3cc(Cl)ccc3Cl)(C(Br)C1=O)C2(C)C (stereo not drawn)	inconclusive: 14.6 µM [cytotoxic, single point]	–
CCCN(C(=O)c1sc2nc3n(c(=O)c2c1C)CCCC3)c1ccccc1C	inconclusive: 20.6 µM [cytotoxic, partial curve]	–
